# From the supplement of paper PMC8728848
# The list shows a part of the results.
# Key:
# Test in all cases: glycan array binding signal (z-score within array); higher = stronger binding
# Conditions in all cases: glycan notation: IUPAC condensed, linker removed
# [1] = target: Fuc(a1-2)Gal(b1-4)GlcNAc(b1-3)Gal(b1-4)GlcNAc(b1-2)Man(a1-3)[Fuc(a1-2)Gal(b1-4)GlcNAc(b1-3)Gal(b1-4)GlcNAc(b1-2)Man(a1-6)]Man(b1-4)GlcNAc(b1-4)GlcNAc
# In short: (§1)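 Negative Z-scores can be read as non-binding. The Z-score is calculated within each array and then averaged across arrays of one protein sequence at different concentrations or buffers and across linkers. Arrays, 3228 in all, were curated from the Consortium for Functional Glycomics database and kept only where the protein sequence was available.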
# [2] = target: Fuc(a1-2)Gal(b1-4)GlcNAc(b1-3)Gal(b1-4)GlcNAc(b1-3)Gal(b1-4)GlcNAc
# In short: as §1
# [3] = target: Fuc(a1-2)Gal(b1-4)GlcNAc(b1-3)GalNAc
# In short: as §1
# [4] = target: Fuc(a1-2)Gal(b1-4)GlcNAc(b1-3)[Fuc(a1-2)Gal(b1-4)GlcNAc(b1-6)]GalNAc
# In short: as §1
# [5] = target: Fuc(a1-2)Gal(b1-4)GlcNAc(b1-3)[Fuc(a1-3)[Gal(b1-4)]GlcNAc(b1-6)]Gal(b1-4)Glc
# In short: as §1
# [6] = target: Fuc(a1-2)Gal(b1-4)GlcNAc(b1-6)GalNAc
# In short: as §1
# [7] = target: Fuc(a1-2)Gal(b1-4)GlcNAc6S
# In short: as §1
# [8] = target: Fuc(a1-2)Gal(b1-4)[Fuc(a1-3)]GlcNAc
# In short: as §1
# [9] = target: Fuc(a1-2)Gal(b1-4)[Fuc(a1-3)]GlcNAc(b1-2)Man(a1-3)[Fuc(a1-2)Gal(b1-4)[Fuc(a1-3)]GlcNAc(b1-2)Man(a1-6)]Man(b1-4)GlcNAc(b1-4)[Fuc(a1-6)]GlcNAc
# In short: as §1
# [10] = target: Fuc(a1-2)Gal(b1-4)[Fuc(a1-3)]GlcNAc(b1-2)[Fuc(a1-2)Gal(b1-4)[Fuc(a1-3)]GlcNAc(b1-4)]Man(a1-3)[Fuc(a1-2)Gal(b1-4)[Fuc(a1-3)]GlcNAc(b1-2)Man(a1-6)]Man(b1-4)GlcNAc(b1-4)GlcNAc
# In short: as §1
# [11] = target: Fuc(a1-2)Gal(b1-4)[Fuc(a1-3)]GlcNAc(b1-3)Gal(b1-4)[Fuc(a1-3)]GlcNAc
# In short: as §1
# [12] = target: Fuc(a1-2)Gal(b1-4)[Fuc(a1-3)]GlcNAc(b1-3)Gal(b1-4)[Fuc(a1-3)]GlcNAc(b1-3)Gal(b1-4)[Fuc(a1-3)]GlcNAc
# In short: as §1
# [13] = target: Fuc(a1-2)Gal(b1-4)[Fuc(a1-3)]GlcNAc(b1-3)GalNAc
# In short: as §1
# [14] = target: Fuc(a1-2)Gal(b1-4)[Fuc(a1-3)]GlcNAc(b1-3)[Neu5Ac(a2-6)Gal(b1-4)GlcNAc(b1-6)]Gal(b1-4)Glc
# In short: as §1
# [15] = target: Fuc(a1-2)Gal3S(b1-4)GlcNAc
# In short: as §1
# [16] = target: Fuc(a1-2)Gal6S(b1-3)GlcNAc
# In short: as §1
# [17] = target: Fuc(a1-2)Gal6S(b1-3)GlcNAc6S
# In short: as §1
# Fuc(a1-2)Gal6S(b1-4)Glc = target: Fuc(a1-2)Gal6S(b1-4)Glc
# In short: as §1
# [18] = target: Fuc(a1-2)Gal6S(b1-4)Glc6S
# In short: as §1
# Fuc(a1-2)[Gal(a1-3)]Gal = target: Fuc(a1-2)[Gal(a1-3)]Gal
# In short: as §1
# [19] = target: Fuc(a1-2)[Gal(a1-3)]Gal(b1-3)GalNAc
# In short: as §1
# [20] = target: Fuc(a1-2)[Gal(a1-3)]Gal(b1-3)GalNAc(b1-3)Gal(a1-4)Gal(b1-4)Glc
# In short: as §1
# [21] = target: Fuc(a1-2)[Gal(a1-3)]Gal(b1-3)GlcNAc
# In short: as §1
# [22] = target: Fuc(a1-2)[Gal(a1-3)]Gal(b1-3)GlcNAc(b1-2)Man(a1-3)[Fuc(a1-2)[Gal(a1-3)]Gal(b1-3)GlcNAc(b1-2)Man(a1-6)]Man(b1-4)GlcNAc(b1-4)GlcNAc
# In short: as §1
# [23] = target: Fuc(a1-2)[Gal(a1-3)]Gal(b1-3)GlcNAc(b1-2)Man(a1-3)[Fuc(a1-2)[Gal(a1-3)]Gal(b1-3)GlcNAc(b1-2)Man(a1-6)]Man(b1-4)GlcNAc(b1-4)[Fuc(a1-6)]GlcNAc
# In short: as §1
# [24] = target: Fuc(a1-2)[Gal(a1-3)]Gal(b1-3)GlcNAc(b1-3)GalNAc
# In short: as §1
# [25] = target: Fuc(a1-2)[Gal(a1-3)]Gal(b1-3)GlcNAc(b1-6)GalNAc
# In short: as §1
# [26] = target: Fuc(a1-2)[Gal(a1-3)]Gal(b1-4)Glc
# In short: as §1
# [27] = target: Fuc(a1-2)[Gal(a1-3)]Gal(b1-4)GlcNAc
# In short: as §1
# [28] = target: Fuc(a1-2)[Gal(a1-3)]Gal(b1-4)GlcNAc(b1-2)Man
# In short: as §1
# [29] = target: Fuc(a1-2)[Gal(a1-3)]Gal(b1-4)GlcNAc(b1-2)Man(a1-3)[Fuc(a1-2)[Gal(a1-3)]Gal(b1-4)GlcNAc(b1-2)Man(a1-6)]Man(b1-4)GlcNAc(b1-4)GlcNAc
# In short: as §1
# [30] = target: Fuc(a1-2)[Gal(a1-3)]Gal(b1-4)GlcNAc(b1-2)Man(a1-3)[Fuc(a1-2)[Gal(a1-3)]Gal(b1-4)GlcNAc(b1-2)Man(a1-6)]Man(b1-4)GlcNAc(b1-4)[Fuc(a1-6)]GlcNAc
# In short: as §1
# [31] = target: Fuc(a1-2)[Gal(a1-3)]Gal(b1-4)GlcNAc(b1-3)GalNAc
# In short: as §1
# [32] = target: Fuc(a1-2)[Gal(a1-3)]Gal(b1-4)GlcNAc(b1-3)[Fuc(a1-2)[Gal(a1-3)]Gal(b1-4)GlcNAc(b1-6)]GalNAc
# In short: as §1
# [33] = target: Fuc(a1-2)[Gal(a1-3)]Gal(b1-4)GlcNAc(b1-6)GalNAc
# In short: as §1
# [34] = target: Fuc(a1-2)[Gal(a1-3)]Gal(b1-4)[Fuc(a1-3)]Glc
# In short: as §1
# [35] = target: Fuc(a1-2)[Gal(a1-3)]Gal(b1-4)[Fuc(a1-3)]GlcNAc
# In short: as §1
# [36] = target: Fuc(a1-2)[Gal(a1-3)]Gal(b1-4)[Fuc(a1-3)]GlcNAc(b1-3)GalNAc
# In short: as §1
# [37] = target: Fuc(a1-2)[Gal(a1-4)]Gal(b1-4)GlcNAc
# In short: as §1
# [38] = target: Fuc(a1-2)[GalNAc(a1-3)]Gal
# In short: as §1
# [39] = target: Fuc(a1-2)[GalNAc(a1-3)]Gal(b1-3)GalNAc(a1-3)[Fuc(a1-2)]Gal(b1-4)GlcNAc
# In short: as §1
# [40] = target: Fuc(a1-2)[GalNAc(a1-3)]Gal(b1-3)GalNAc(b1-3)Gal(a1-4)Gal(b1-4)Glc
# In short: as §1
# [41] = target: Fuc(a1-2)[GalNAc(a1-3)]Gal(b1-3)GlcNAc
# In short: as §1
# [42] = target: Fuc(a1-2)[GalNAc(a1-3)]Gal(b1-3)GlcNAc(b1-2)Man(a1-3)[Fuc(a1-2)[GalNAc(a1-3)]Gal(b1-3)GlcNAc(b1-2)Man(a1-6)]Man(b1-4)GlcNAc(b1-4)GlcNAc
# In short: as §1
# [43] = target: Fuc(a1-2)[GalNAc(a1-3)]Gal(b1-3)GlcNAc(b1-2)Man(a1-3)[Fuc(a1-2)[GalNAc(a1-3)]Gal(b1-3)GlcNAc(b1-2)Man(a1-6)]Man(b1-4)GlcNAc(b1-4)[Fuc(a1-6)]GlcNAc
# In short: as §1
binder,measurement,setting,value
LlpA (Burkholderia cenocepacia) (protein) MGSSHHHHHHSSGLVPRGSHKILGSNETLSAGNVVYSDNGQYHLAMQTDGNLVVYGPTGAVWQSQTSGSGGNRAVMQGDGNLVIYRADNTAAWSSKTAHPGAFLAVQDDGNVVIYWPRPAWASNTSDPATQQSAESKYLASGSTMSAGQTVTVAQYMLVFQADGNLVLYKNGGNPIWSTGTQGKGATYAVMQSDGNFVIYAGSTALWSTKTNGANGAQLVLQSDGNLVIYAPTAAWSTKFGLVTAPTSTSTSNNGPGSGICVGVCPPHPLNGNPFSPVGVGTTGLGFPTPGYPGAAF,glycan array binding signal (z-score),[1],1.25
same,glycan array binding signal (z-score),[2],0.594
same,glycan array binding signal (z-score),[3],0.926
same,glycan array binding signal (z-score),[4],-0.424
same,glycan array binding signal (z-score),[5],1.43
same,glycan array binding signal (z-score),[6],-0.461
same,glycan array binding signal (z-score),[7],-0.241
same,glycan array binding signal (z-score),[8],0.438
same,glycan array binding signal (z-score),[9],-0.684
same,glycan array binding signal (z-score),[10],-0.26
same,glycan array binding signal (z-score),[11],0.198
same,glycan array binding signal (z-score),[12],-0.322
same,glycan array binding signal (z-score),[13],0.348
same,glycan array binding signal (z-score),[14],-0.773
same,glycan array binding signal (z-score),[15],-1.76
same,glycan array binding signal (z-score),[16],0.167
same,glycan array binding signal (z-score),[17],-0.744
same,glycan array binding signal (z-score),Fuc(a1-2)Gal6S(b1-4)Glc,-0.166
same,glycan array binding signal (z-score),[18],0.91
same,glycan array binding signal (z-score),Fuc(a1-2)[Gal(a1-3)]Gal,-0.171
same,glycan array binding signal (z-score),[19],0.017
same,glycan array binding signal (z-score),[20],-0.361
same,glycan array binding signal (z-score),[21],0.129
same,glycan array binding signal (z-score),[22],0.005
same,glycan array binding signal (z-score),[23],-1.07
same,glycan array binding signal (z-score),[24],-1.03
same,glycan array binding signal (z-score),[25],-1.44
same,glycan array binding signal (z-score),[26],-0.011
same,glycan array binding signal (z-score),[27],-0.605
same,glycan array binding signal (z-score),[28],0.547
same,glycan array binding signal (z-score),[29],0.546
same,glycan array binding signal (z-score),[30],0.062
same,glycan array binding signal (z-score),[31],0.11
same,glycan array binding signal (z-score),[32],-0.512
same,glycan array binding signal (z-score),[33],-0.111
same,glycan array binding signal (z-score),[34],-1.36
same,glycan array binding signal (z-score),[35],1.33
same,glycan array binding signal (z-score),[36],1.06
same,glycan array binding signal (z-score),[37],-0.003
same,glycan array binding signal (z-score),[38],-0.443
same,glycan array binding signal (z-score),[39],0.294
same,glycan array binding signal (z-score),[40],-0.271
same,glycan array binding signal (z-score),[41],0.446
same,glycan array binding signal (z-score),[42],-0.334
same,glycan array binding signal (z-score),[43],0.257

# A second format for some results above:
binder | measurement | setting | value
LlpA (Burkholderia cenocepacia) (protein) MGSSHHHHHHSSGLVPRGSHKILGSNETLSAGNVVYSDNGQYHLAMQTDGNLVVYGPTGAVWQSQTSGSGGNRAVMQGDGNLVIYRADNTAAWSSKTAHPGAFLAVQDDGNVVIYWPRPAWASNTSDPATQQSAESKYLASGSTMSAGQTVTVAQYMLVFQADGNLVLYKNGGNPIWSTGTQGKGATYAVMQSDGNFVIYAGSTALWSTKTNGANGAQLVLQSDGNLVIYAPTAAWSTKFGLVTAPTSTSTSNNGPGSGICVGVCPPHPLNGNPFSPVGVGTTGLGFPTPGYPGAAF | glycan array binding signal (z-score) | [8] | 0.438
same | glycan array binding signal (z-score) | [9] | -0.684
